Measured values published in the supplement of paper PMC10849652.
The list shows a part of the results.

The chains behind the UniProt entries cited, without tags or fusion partners. Where a name states a change or a piece, a line headed by the entry shows the natural chain unless it says otherwise.
UniProt P50995, whole entry, looked up: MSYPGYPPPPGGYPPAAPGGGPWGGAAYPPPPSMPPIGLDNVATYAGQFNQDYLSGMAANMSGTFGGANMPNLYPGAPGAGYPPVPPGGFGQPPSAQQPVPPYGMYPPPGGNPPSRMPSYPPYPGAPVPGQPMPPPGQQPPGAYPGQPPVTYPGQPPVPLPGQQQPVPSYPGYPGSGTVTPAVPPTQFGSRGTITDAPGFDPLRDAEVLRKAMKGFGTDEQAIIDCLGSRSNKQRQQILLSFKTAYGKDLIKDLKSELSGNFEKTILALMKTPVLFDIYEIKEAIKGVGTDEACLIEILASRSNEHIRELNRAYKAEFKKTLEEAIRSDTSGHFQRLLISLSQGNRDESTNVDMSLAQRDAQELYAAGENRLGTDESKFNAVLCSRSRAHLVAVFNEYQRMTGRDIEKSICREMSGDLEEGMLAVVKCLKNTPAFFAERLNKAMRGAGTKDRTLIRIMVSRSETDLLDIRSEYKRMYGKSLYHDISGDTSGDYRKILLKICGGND
UniProt Q9BXS5: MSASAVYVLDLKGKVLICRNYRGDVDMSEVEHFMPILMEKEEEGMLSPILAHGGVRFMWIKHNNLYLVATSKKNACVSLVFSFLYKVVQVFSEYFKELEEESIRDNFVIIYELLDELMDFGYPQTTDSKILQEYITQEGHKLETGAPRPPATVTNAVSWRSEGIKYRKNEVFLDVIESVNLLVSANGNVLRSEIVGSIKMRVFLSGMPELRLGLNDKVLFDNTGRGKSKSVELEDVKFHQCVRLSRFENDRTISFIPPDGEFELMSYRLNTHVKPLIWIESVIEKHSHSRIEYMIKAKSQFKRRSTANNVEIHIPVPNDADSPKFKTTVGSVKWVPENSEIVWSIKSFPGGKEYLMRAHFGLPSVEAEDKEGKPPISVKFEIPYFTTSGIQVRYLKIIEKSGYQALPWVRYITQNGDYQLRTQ
UniProt Q6NXT1: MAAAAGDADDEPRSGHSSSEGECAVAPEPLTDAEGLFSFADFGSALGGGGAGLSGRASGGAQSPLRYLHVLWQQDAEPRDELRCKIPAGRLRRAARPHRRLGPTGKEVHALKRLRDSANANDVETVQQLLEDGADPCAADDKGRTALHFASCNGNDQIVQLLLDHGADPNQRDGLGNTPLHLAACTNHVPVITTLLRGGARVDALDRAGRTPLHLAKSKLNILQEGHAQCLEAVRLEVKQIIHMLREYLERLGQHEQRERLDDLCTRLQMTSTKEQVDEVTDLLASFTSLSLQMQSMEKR
UniProt Q92688: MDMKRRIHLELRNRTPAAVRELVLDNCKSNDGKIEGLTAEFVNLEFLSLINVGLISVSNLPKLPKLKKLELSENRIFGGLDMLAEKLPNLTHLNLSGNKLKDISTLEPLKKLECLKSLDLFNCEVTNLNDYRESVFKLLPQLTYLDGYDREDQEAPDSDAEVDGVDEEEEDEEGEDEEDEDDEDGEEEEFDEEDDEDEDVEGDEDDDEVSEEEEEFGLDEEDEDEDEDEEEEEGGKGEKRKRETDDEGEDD
UniProt P61204: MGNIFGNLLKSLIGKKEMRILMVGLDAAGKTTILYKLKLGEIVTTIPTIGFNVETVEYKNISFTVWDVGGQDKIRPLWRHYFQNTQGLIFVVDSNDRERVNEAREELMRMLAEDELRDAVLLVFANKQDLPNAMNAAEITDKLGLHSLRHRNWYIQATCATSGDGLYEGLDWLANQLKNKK
UniProt P52565: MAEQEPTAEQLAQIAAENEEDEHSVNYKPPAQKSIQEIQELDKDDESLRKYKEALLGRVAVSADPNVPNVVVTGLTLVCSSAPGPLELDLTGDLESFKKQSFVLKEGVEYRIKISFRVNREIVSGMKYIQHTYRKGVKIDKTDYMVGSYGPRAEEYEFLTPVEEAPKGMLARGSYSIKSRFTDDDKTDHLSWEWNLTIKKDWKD
UniProt P84085: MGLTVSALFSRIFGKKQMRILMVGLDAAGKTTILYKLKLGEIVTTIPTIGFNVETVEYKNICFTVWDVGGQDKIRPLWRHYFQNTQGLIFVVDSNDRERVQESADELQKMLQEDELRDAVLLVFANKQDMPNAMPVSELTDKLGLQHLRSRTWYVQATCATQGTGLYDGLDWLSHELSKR
UniProt Q9BZZ5: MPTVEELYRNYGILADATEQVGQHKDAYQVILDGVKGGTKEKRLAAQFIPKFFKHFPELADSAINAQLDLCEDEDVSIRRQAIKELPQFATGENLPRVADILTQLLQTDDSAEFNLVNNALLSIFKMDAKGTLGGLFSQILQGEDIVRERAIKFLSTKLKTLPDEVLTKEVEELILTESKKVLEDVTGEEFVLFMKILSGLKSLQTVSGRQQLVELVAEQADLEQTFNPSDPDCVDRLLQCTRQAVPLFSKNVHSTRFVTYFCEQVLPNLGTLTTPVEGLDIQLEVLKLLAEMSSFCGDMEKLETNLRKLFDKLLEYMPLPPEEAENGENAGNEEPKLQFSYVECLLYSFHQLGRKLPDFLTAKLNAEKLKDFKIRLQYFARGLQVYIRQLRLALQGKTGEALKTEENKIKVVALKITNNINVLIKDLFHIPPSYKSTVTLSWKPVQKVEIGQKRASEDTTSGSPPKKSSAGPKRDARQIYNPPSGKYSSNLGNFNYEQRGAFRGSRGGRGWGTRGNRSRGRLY
UniProt Q8N392: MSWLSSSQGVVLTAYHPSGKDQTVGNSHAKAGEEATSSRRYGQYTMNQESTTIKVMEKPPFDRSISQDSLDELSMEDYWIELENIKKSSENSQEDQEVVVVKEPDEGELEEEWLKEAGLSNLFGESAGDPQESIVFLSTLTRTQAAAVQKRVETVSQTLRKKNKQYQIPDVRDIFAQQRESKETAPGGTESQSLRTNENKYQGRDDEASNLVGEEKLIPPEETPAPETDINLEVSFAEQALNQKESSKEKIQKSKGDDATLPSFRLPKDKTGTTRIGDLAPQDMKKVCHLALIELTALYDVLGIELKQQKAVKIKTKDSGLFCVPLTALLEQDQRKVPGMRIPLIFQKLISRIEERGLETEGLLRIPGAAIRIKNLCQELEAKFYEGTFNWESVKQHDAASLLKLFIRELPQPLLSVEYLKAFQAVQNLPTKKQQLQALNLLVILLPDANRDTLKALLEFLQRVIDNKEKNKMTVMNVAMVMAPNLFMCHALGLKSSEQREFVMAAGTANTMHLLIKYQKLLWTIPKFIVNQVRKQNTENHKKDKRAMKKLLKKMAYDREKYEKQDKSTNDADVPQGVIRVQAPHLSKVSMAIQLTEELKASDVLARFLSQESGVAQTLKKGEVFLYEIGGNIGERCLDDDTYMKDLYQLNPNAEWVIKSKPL
UniProt P07355, whole entry, looked up: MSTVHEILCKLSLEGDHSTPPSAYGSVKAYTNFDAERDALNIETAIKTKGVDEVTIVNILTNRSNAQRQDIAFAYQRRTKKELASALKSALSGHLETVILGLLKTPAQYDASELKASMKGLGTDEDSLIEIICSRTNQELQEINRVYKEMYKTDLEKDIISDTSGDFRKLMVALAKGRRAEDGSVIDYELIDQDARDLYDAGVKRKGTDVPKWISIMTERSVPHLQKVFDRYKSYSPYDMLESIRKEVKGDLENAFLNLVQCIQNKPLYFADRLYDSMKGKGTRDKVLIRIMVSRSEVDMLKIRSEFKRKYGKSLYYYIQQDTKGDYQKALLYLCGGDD
UniProt Q9NP61: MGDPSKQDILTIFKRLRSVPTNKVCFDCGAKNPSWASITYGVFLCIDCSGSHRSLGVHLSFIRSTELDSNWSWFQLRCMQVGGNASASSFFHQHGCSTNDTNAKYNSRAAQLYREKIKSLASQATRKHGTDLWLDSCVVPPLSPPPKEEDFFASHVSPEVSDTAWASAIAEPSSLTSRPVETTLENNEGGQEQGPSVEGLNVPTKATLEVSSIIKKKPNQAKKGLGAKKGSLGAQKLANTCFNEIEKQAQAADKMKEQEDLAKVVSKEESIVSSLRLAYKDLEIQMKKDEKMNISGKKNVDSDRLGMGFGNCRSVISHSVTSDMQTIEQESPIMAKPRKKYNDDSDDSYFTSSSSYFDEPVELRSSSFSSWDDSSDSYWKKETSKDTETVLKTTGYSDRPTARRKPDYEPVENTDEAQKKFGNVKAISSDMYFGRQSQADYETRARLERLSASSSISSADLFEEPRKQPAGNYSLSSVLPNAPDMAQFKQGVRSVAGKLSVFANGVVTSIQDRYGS
UniProt Q4KMQ2: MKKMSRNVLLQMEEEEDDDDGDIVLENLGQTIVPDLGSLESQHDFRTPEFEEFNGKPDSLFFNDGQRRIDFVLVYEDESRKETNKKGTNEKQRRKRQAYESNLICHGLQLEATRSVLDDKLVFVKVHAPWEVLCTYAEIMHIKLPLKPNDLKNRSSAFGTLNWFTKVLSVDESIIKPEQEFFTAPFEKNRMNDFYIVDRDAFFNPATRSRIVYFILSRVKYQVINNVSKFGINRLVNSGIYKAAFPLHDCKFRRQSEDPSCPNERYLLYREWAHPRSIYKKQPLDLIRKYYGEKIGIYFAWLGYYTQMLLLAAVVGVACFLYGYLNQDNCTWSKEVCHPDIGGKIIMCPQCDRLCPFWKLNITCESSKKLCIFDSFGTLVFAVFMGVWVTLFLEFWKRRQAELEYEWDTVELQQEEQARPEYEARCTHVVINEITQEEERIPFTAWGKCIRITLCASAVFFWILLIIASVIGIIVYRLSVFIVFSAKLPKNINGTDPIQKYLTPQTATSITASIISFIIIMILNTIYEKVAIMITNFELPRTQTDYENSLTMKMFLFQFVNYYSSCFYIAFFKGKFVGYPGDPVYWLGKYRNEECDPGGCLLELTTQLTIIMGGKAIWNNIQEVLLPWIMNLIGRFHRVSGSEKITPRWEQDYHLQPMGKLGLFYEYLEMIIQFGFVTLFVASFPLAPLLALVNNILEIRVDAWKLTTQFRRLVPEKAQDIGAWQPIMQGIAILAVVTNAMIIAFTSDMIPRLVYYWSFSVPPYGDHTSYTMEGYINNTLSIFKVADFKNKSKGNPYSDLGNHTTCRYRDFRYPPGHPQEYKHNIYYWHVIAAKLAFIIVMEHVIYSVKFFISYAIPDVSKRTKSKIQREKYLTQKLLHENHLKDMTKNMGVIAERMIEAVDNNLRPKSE
UniProt Q9HDC9: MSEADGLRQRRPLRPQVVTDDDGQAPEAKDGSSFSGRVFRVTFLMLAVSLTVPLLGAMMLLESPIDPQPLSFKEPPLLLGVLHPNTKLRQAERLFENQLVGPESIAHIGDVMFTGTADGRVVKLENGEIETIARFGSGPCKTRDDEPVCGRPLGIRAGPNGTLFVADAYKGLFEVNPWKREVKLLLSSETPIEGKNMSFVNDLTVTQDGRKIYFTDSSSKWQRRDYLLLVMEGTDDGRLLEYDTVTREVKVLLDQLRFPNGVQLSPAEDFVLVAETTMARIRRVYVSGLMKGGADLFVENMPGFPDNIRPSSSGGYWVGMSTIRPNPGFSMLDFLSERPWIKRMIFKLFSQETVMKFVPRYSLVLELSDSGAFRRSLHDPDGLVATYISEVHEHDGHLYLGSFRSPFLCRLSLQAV
UniProt Q92619: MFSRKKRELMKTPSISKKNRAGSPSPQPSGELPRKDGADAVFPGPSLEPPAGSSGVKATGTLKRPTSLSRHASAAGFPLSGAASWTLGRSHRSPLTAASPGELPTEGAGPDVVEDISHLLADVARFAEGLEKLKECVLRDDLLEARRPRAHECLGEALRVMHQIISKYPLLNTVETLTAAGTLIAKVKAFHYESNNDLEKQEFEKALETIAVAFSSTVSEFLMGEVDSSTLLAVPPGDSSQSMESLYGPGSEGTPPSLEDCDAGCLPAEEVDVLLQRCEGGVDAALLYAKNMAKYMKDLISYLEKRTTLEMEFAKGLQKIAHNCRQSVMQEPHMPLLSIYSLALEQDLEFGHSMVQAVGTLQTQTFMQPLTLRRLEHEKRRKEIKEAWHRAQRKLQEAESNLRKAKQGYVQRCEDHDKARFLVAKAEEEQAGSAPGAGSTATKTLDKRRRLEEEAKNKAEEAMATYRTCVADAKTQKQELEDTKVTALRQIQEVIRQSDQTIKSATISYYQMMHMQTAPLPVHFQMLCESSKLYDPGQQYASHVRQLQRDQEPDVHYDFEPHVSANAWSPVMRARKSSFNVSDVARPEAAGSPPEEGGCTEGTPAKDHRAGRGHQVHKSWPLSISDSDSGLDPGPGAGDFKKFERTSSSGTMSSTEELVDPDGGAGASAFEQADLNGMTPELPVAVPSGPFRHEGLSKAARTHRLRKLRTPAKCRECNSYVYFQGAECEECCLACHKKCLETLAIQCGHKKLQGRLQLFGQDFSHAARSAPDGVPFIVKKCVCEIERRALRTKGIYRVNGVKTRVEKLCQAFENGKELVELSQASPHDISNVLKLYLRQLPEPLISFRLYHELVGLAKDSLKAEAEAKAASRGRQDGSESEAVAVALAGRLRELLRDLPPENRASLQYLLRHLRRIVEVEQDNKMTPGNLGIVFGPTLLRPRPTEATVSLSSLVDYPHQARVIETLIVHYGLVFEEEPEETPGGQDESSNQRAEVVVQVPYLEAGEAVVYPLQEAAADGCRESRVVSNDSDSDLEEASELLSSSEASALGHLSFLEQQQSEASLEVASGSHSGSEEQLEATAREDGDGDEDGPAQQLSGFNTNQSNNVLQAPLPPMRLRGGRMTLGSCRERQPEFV

compound: CC1=C(C2=C(C=C1)C(=O)C3=CC=CC=C3N2CCCN)C; assay: log2 fold change, soluble protein after heating vs DMSO (PISA); higher = thermal stabilisation; K562 cells, 10 uM, 30 min; active = over 0.2 and 3.5 SD of the protein, either way, in both replicates (recomputed)
In short: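 K562 cells at 2×10^6 cells/mL were exposed to 10 μM compound for 30 min, then aliquots were heated for 3 min across 48°C-58°C, pooled, and extracted in PBS containing 0.5% NP-40 at 4°C. The supernatant after 21,000xg for 90 min was taken as soluble protein and measured by TMTpro 16plex LC-MS/MS with channel sums equalised. Thermal stability is reported relative to control samples, with values from duplicates. Fold changes are given on a log2 scale.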

Row | Target | log2 fold change
1 | ANXA11 (UniProt P50995) | inactive: 0.042
2 | ARF1 (UniProt P84077) | inactive: 0.151
3 | ARCN1 (UniProt P48444) | inactive: -0.016
4 | AP1M1 (UniProt Q9BXS5) | inactive: -0.026
5 | ANTKMT (UniProt Q9BQD7) | inactive: 0.154
6 | ANK3 (UniProt Q12955) | inactive: 0.046
7 | ANKMY2 (UniProt Q8IV38) | inactive: 0.035
8 | ANAPC16 (UniProt Q96DE5) | inactive: 0.193
9 | ANKRD54 (UniProt Q6NXT1) | inactive: -0.085
10 | ANP32B (UniProt Q92688) | inactive: -0.067
11 | ARIH1 (UniProt Q9Y4X5) | inactive: 0.002
12 | APOC1 (UniProt P02654) | inactive: 0.182
13 | ANXA6 (UniProt P08133) | inactive: -0.001
14 | ARF3 (UniProt P61204) | inactive: -0.005
15 | ARHGDIA (UniProt P52565) | inactive: -0.008
16 | ARF5 (UniProt P84085) | inactive: 0.01

Row | Target | log2 fold change
17 | ANKFY1 isoform 4 (UniProt Q9P2R3) | inactive: -0.208
18 | API5 isoform 2 (UniProt Q9BZZ5) | inactive: 0.063
19 | ANXA4 (UniProt P09525) | inactive: 0.143
20 | ARHGAP18 (UniProt Q8N392) | inactive: 0.038
21 | ANXA2 isoform 2 (UniProt P07355) | inactive: 0.018
22 | ARFGAP3 (UniProt Q9NP61) | inactive: 0.042
23 | APEH (UniProt P13798) | inactive: 0.018
24 | ARHGEF2 (UniProt Q92974) | inactive: -0.018
25 | APOBEC3C (UniProt Q9NRW3) | inactive: -0.262
26 | API5 (UniProt Q9BZZ5) | inactive: 0.045
27 | ANKHD1 isoform 6 (UniProt Q8IWZ3) | inactive: -0.109
28 | AP3S1 (UniProt Q92572) | inactive: -0.036
29 | ANO6 isoform 2 (UniProt Q4KMQ2) | inactive: 0.08
30 | APMAP (UniProt Q9HDC9) | inactive: 0
31 | APOO (UniProt Q9BUR5) | inactive: -0.006
32 | ARHGAP45 isoform 2 (UniProt Q92619) | inactive: 0.042

Shown tab-delimited: part of the list above
Row	Target	log2 fold change
31	APOO (UniProt Q9BUR5)	inactive: -0.006
32	ARHGAP45 isoform 2 (UniProt Q92619)	inactive: 0.042
